What all share (test): intrinsic tryptophan fluorescence titration
What all share (settings): saturating ATP; recombinant protein; protein details: His (Ni-NTA, pET-14b); folded or branched DNA

Data set [1] concerns the target T1, ADAAD D591H D811H (Bos taurus (bovine)) (UniProt Q9TTA5).
T1 sequence (looked up, limits assumed): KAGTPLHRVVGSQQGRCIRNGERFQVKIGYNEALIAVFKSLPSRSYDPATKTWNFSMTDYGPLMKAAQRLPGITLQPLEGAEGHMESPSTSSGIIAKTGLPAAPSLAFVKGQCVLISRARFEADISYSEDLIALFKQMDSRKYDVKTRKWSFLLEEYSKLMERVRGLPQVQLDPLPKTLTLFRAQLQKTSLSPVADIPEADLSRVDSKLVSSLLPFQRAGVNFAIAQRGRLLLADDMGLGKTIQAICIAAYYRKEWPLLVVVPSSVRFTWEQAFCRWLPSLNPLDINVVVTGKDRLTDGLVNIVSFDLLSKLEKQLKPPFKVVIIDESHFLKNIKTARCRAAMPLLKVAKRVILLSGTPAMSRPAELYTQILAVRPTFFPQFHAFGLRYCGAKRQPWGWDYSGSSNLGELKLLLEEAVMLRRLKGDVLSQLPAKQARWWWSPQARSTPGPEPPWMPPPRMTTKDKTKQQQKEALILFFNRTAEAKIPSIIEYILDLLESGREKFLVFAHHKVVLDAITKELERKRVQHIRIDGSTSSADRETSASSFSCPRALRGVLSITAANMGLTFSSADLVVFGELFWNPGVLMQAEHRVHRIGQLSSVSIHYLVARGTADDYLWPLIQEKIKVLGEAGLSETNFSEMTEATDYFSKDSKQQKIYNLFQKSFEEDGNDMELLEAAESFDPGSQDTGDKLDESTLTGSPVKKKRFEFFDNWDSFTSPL

For data set [2], the target named is T2, ADAAD F507A F727A (Bos taurus (bovine)) (UniProt Q9TTA5).
T2 sequence (looked up, limits assumed): T1 sequence (looked up, limits assumed) with F507A, H591D

Data set [3] has as its target T3, ADAAD F507A/R592A F727A,R812A (Bos taurus (bovine)) (UniProt Q9TTA5).
T3 sequence (looked up, limits assumed): T1 sequence (looked up, limits assumed) with F507A, H591D, R592A

Data set [4] deals with T4, ADAAD R595K R815K (Bos taurus (bovine)) (UniProt Q9TTA5).
T4 sequence (looked up, limits assumed): T1 sequence (looked up, limits assumed) with H591D, R595K

The results in this text go back to article PMC6019379, “RecA-like domain 2 of DNA-dependent ATPase A domain, a SWI2/SNF2 protein, mediates conformational integrity and ATP hydrolysis” (Bioscience Reports, 2018).

Changes are numbered by the printed parent chain. For at least one entry, the source does not settle the construct or the ends of the probe. Tags and fusion partners may be left off the protein sequences shown.

For orientation: Kd means the constant that tells how readily two partners part at equilibrium. Regarding “GCGCAATTGCGCTCGACGATTTTTTAGCGCAATTGCGC [slDNA (stem-loop DNA)]”, the Kd in data set [1] is 6.9 nM; in data set [2], 32.8 nM; in data set [3] it was 9.4 nM; in data set [4], 7.9 nM.
